Data source: PubChem BioAssay AID652259 (Drosophila RNAi Screening Center, 2013)
The deposit covers about 22,000 reagents; this is a random part of those with a known target gene and a result. In the full data, 233 (1.1%) got an active call. 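Light values are raw, unnormalised plate reads; the ratio scores behind the reporter calls were not deposited.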 The record does not give: the amount of reagent, the time to read-out, the dose of the treatment.

Test: 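Genome-wide hunt for genes that control Wingless pathway activity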 (primary screen)
Cells: Drosophila clone 8 imaginal disc epithelial cells
Reagent: long dsRNA against Drosophila genes
Treatment: pathway stimulated by co-transfected Wingless expression plasmid
Measured: 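Firefly luciferase from a tcf-site Wingless reporter, measured alongside co-transfected Renilla luciferase that tracks transfection; pathway stimulated by a Wingless plasmid; the firefly-to-Renilla ratio is not deposited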
Direction: firefly reporter light: higher = more Wg reporter light, before normalisation; Renilla control light: higher = more transfected or surviving cells
Hit rule: 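a knock-down is a candidate when at least two out of four statistical tests show it departing from its plate mean; one test alone signals a weak candidate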
Calls: active = candidate regulator (raises or lowers reporter); inactive = not a candidate

{"Gene": "lncRNA:CR31647", "PubChem SID": "SID104201529", "firefly reporter light, replicate 1": 3.24e5, "firefly reporter light, replicate 2": 3.85e5, "Renilla control light, replicate 1": 1.50e5, "Renilla control light, replicate 2": 1.76e5, "Outcome": "inactive"}
{"Gene": "Rpp30", "PubChem SID": "SID104180112", "firefly reporter light, replicate 1": 12807, "Renilla control light, replicate 1": 5520, "Outcome": "inactive"}
{"Gene": "Tmem131", "PubChem SID": "SID104186946", "firefly reporter light, replicate 1": 14464, "Renilla control light, replicate 1": 3344, "Outcome": "inactive"}
{"Gene": "ND-B17.2", "PubChem SID": "SID104180369", "firefly reporter light, replicate 1": 2660, "firefly reporter light, replicate 2": 8251, "Renilla control light, replicate 1": 1460, "Renilla control light, replicate 2": 4038, "Outcome": "inactive"}
{"Gene": "CG9628", "PubChem SID": "SID104190874", "firefly reporter light, replicate 1": 7669, "Renilla control light, replicate 1": 2764, "Outcome": "inactive"}
{"Gene": "CG11406", "PubChem SID": "SID104183802", "firefly reporter light, replicate 1": 18954, "Renilla control light, replicate 1": 9770, "Outcome": "inactive"}
{"Gene": "CG11406", "PubChem SID": "SID104183900", "firefly reporter light, replicate 1": 3091, "firefly reporter light, replicate 2": 9410, "Renilla control light, replicate 1": 572, "Renilla control light, replicate 2": 3882, "Outcome": "inactive"}
{"Gene": "cmet", "PubChem SID": "SID104183303", "firefly reporter light, replicate 1": 2608, "firefly reporter light, replicate 2": 6891, "Renilla control light, replicate 1": 1062, "Renilla control light, replicate 2": 2688, "Outcome": "inactive"}
{"Gene": "Elys", "PubChem SID": "SID104199363", "firefly reporter light, replicate 1": 1945, "firefly reporter light, replicate 2": 8501, "Renilla control light, replicate 1": 697, "Renilla control light, replicate 2": 2284, "Outcome": "inactive"}
{"Gene": "NetB", "PubChem SID": "SID104200054", "firefly reporter light, replicate 1": 1872, "firefly reporter light, replicate 2": 5920, "Renilla control light, replicate 1": 829, "Renilla control light, replicate 2": 2600, "Outcome": "inactive"}
{"Gene": "Epac", "PubChem SID": "SID104184761", "firefly reporter light, replicate 1": 3915, "Renilla control light, replicate 1": 1024, "Outcome": "inactive"}
{"Gene": "Epac", "PubChem SID": "SID104184788", "firefly reporter light, replicate 1": 13532, "Renilla control light, replicate 1": 2949, "Outcome": "inactive"}
{"Gene": "Epac", "PubChem SID": "SID104184789", "firefly reporter light, replicate 1": 1816, "firefly reporter light, replicate 2": 8928, "Renilla control light, replicate 1": 421, "Renilla control light, replicate 2": 2336, "Outcome": "inactive"}
{"Gene": "pxb", "PubChem SID": "SID104192902", "firefly reporter light, replicate 1": 3912, "Renilla control light, replicate 1": 1148, "Outcome": "inactive"}
{"Gene": "pxb", "PubChem SID": "SID104194788", "firefly reporter light, replicate 1": 24898, "firefly reporter light, replicate 2": 8.50e5, "Renilla control light, replicate 1": 7003, "Renilla control light, replicate 2": 1.48e5, "Outcome": "inactive"}
{"Gene": "pxb", "PubChem SID": "SID104194789", "firefly reporter light, replicate 1": 19558, "Renilla control light, replicate 1": 6116, "Outcome": "inactive"}
{"Gene": "pxb", "PubChem SID": "SID104201756", "firefly reporter light, replicate 1": 5.19e5, "firefly reporter light, replicate 2": 5.33e5, "Renilla control light, replicate 1": 2.64e5, "Renilla control light, replicate 2": 2.57e5, "Outcome": "inactive"}
